This note sets out measurements from the supplement of paper PMC12889115.

The test system of the experiment is Salmonella enterica serovar Typhimurium SL1344. Description: bacterial growth OD600 after 18 h with compound and polymyxin B; higher = more bacterial growth (less inhibition). The settings on record: 50 µM, Mueller-Hinton broth.

SMILES strings stand for the structures. This is one part of the list. Values are raw readings; no control value is given beside them.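 In the initial screen, polymyxin B was used at a concentration that permeabilizes Salmonella's outer membrane but not its inner membrane. Maximum growth was set by DMSO wells with or without polymyxin B. Since plates varied, data were ranked per plate, and compounds giving the lowest OD600 advanced as hits.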

Regarding `CCOc1ccc(CN2CCC(O)(Cc3cc(-c4ccccc4)no3)CC2)cc1`, the “bacterial growth OD600” value (polymyxin B 1 µg/mL) turned out to be 0.911. For the compound `COc1cc(=O)n2c(c1C(=O)N1CCc3ccccc3C1)CCN(Cc1ccc(F)c(F)c1)CC2`, the “bacterial growth OD600” value (polymyxin B 0.75 µg/mL) was 0.764.

As for `COc1ccccc1-n1cc(CN2CCOc3ccc(CN4CCN(CCO)CC4)cc3C2)cn1`, the “bacterial growth OD600” value (polymyxin B 0.75 µg/mL) was 0.787. Same read-out and setting: to `COc1ccc(CC(=O)N2CCC(C3(C)NC(=O)N(Cc4ccsc4)C3=O)CC2)cc1OC` (stereo not given) belongs 0.842. On to `CN(C(=O)c1cc2ccccc2oc1=O)C1CCCN(CCCc2ccccc2)C1` (stereo not given), for which the “bacterial growth OD600” value (polymyxin B 1 µg/mL) was 1.2. For the compound `O=C(Nc1cccc(-c2cccc(Cl)c2)c1)C1CCN(C(=O)c2cnccn2)CC1`, under “polymyxin B 1 µg/mL”, the “bacterial growth OD600” value came out at 0.596. On to `Cc1nn(C)cc1CNC(=O)c1ccc(OC2CCN(S(=O)(=O)N(C)C)CC2)cc1`, for which, where the note is “polymyxin B 1 µg/mL”, the “bacterial growth OD600” value was 1.26. For the compound `O=C(CCC1CCCCC1)N1CCOc2ccc(CN3CCC(Oc4cccnc4)CC3)cc2C1`, for the setting “polymyxin B 0.75 µg/mL”, the “bacterial growth OD600” value was 0.637. For `CN(C)C(=O)N1CCC(C(=O)N2CCCC(C(=O)c3cccc4ccccc34)C2)CC1` (stereo not given), the “bacterial growth OD600” value (polymyxin B 1 µg/mL) worked out at 0.762. With `Cc1nc2ccccc2n1Cc1cc(C(=O)NCCc2cccnc2)no1`, for the setting “polymyxin B 1 µg/mL”, the “bacterial growth OD600” value came to 1.06. Turning to `CCN1C(=O)CC(CC(=O)N(C)CC2CCCCO2)(c2cccc(C(F)(F)F)c2)C1=O` (stereo not given), the “bacterial growth OD600” value (polymyxin B 0.75 µg/mL) is 0.941. Consider `Cc1nonc1CN(C)C(=O)c1cc(Cl)ccc1OC1CCN(C2CCCC2)CC1`, for which the “bacterial growth OD600” value (polymyxin B 1 µg/mL) is 1.05.

For `O=C(NC1CCCCC1)c1cn(C2CC2)cc(C(=O)NC(c2ccccn2)C(F)(F)F)c1=O` (stereo not given), the “bacterial growth OD600” value (polymyxin B 0.75 µg/mL) came out at 0.005. As for `O=C(NCCc1ccccc1)c1ccc(OC2CCN(C(=O)Cn3cncn3)CC2)cc1`, where the note is “polymyxin B 1 µg/mL”, the “bacterial growth OD600” value amounted to 1.08. Still for that read-out and setting: to `Cc1cc2ncn(Cc3cc(C(=O)N4CCSCC4)n[nH]3)c2cc1C` belongs 0.83. In the case of `COc1cccc(CNC(=O)C2CCN(c3nc(C)c4ccc(S(C)(=O)=O)cc4n3)CC2)c1OC`, where the note is “polymyxin B 0.75 µg/mL”, the “bacterial growth OD600” value worked out at 0.896. As for `O=C(c1ccc(OC2CCN(Cc3cc4ccccc4[nH]3)CC2)cc1)N1CCCC1`, the “bacterial growth OD600” value (polymyxin B 1 µg/mL) came out at 1.18. Turning to `CC1CCN(C(=O)CC(c2ccc(O)cc2)c2cccc(O)c2)CC1` (stereo not given), the “bacterial growth OD600” value (polymyxin B 1 µg/mL) was determined as 0.828.

`Cc1nn(C)cc1CN1CCOc2ccc(C3=Cc4ccccc4C3)cc2C1`: for the setting “polymyxin B 0.75 µg/mL”, the “bacterial growth OD600” value turned out to be 0.003.

On to `O=C(NCC1CCCN(C(=O)NCCc2ccccc2)C1)c1cccnc1` (stereo not given), for which, for the setting “polymyxin B 0.75 µg/mL”, the “bacterial growth OD600” value was 0.844. In the case of `CC1(C)Cc2nc(N3CCOCC3)ncc2C(NC(=O)Cc2cccs2)C1` (stereo not given), where the note is “polymyxin B 0.75 µg/mL”, the “bacterial growth OD600” value came out at 0.822. For the compound `COCC1CCCN(C(=O)c2cc(COc3cc(C)ccc3C)on2)C1` (stereo not given), the “bacterial growth OD600” value (polymyxin B 0.75 µg/mL) was determined as 0.233.

As to `CC(C)CNC(=O)c1coc(COc2cccc3cccnc23)n1`, the “bacterial growth OD600” value (polymyxin B 0.75 µg/mL) worked out at 0.796.

In the case of `CN(CCc1ccccn1)c1ncccc1CNC(=O)c1coc2c1C(=O)CCC2`, under “polymyxin B 0.75 µg/mL”, the “bacterial growth OD600” value came out at 0.818. Turning to `COc1cccc(CN2C(=O)NC(C)(C3CCN(C(=O)c4cccnc4SC)CC3)C2=O)c1OC` (stereo not given), the “bacterial growth OD600” value (polymyxin B 0.75 µg/mL) was 0.827. For the compound `CO[C@H]1[C@H](NC(=O)Cc2cccs2)c2ccccc2C12CCN(Cc1ccc(C)cc1)CC2`, the “bacterial growth OD600” value (polymyxin B 0.75 µg/mL) came to 0.724.

On to `O=C(c1ccc2oc(Cc3ccccc3)nc2c1)N1CCCCCCC1`, for which the “bacterial growth OD600” value (polymyxin B 1 µg/mL) stood at 0.662.

Regarding `CC(C)CN1CCC(C2CCN(Cc3nccs3)C2)CC1` (stereo not given), the “bacterial growth OD600” value (polymyxin B 0.75 µg/mL) was 0.894.

As for `COc1ccc(NC2CCCN(C(=O)c3cc4ccccc4o3)C2)cc1` (stereo not given), the “bacterial growth OD600” value (polymyxin B 1 µg/mL) is 0.703. With `CN(CC1CCOCC1)C(=O)C1CCC(=O)N(CC2CCCCC2)C1` (stereo not given), the “bacterial growth OD600” value (polymyxin B 1 µg/mL) came out at 1.12.
